PubChem BioAssay AID652259 | Drosophila RNAi Screening Center | 2013
The deposit covers about 22,000 reagents; below is an unselected part of those with a known target gene and a result. Of all reagents, 233 (1.1%) are marked active. 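Light values are raw, unnormalised plate reads; the ratio scores behind the reporter calls were not deposited.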 A plus sign joins genes that one reagent is predicted to hit. No sequences are given here. The record does not give: the amount of reagent, the time to read-out, the dose of the treatment.

Test: 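Genome-wide hunt for genes that control Wingless pathway activity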 (primary screen)
System: Drosophila clone 8 imaginal disc epithelial cells
Knock-down reagent: long dsRNA against Drosophila genes
Conditions: pathway stimulated by co-transfected Wingless expression plasmid
Detection: 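Firefly luciferase from a tcf-site Wingless reporter, measured alongside co-transfected Renilla luciferase that tracks transfection; pathway stimulated by a Wingless plasmid; the firefly-to-Renilla ratio is not deposited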
Scale: firefly reporter light: higher = more Wg reporter light, before normalisation; Renilla control light: higher = more transfected or surviving cells
Rule for the call: 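Strong candidates differ from their plate mean by at least two out of four per-plate statistical tests; weak candidates meet just one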
Calls: active = candidate regulator (raises or lowers reporter); inactive = not a candidate

Target gene,amplicon,"reporter change call, replicate 1","firefly reporter light, replicate 1","firefly reporter light, replicate 2","Renilla control light, replicate 1","Renilla control light, replicate 2",outcome
drongo,DRSC00814,Wg reporter activity raised,18306,,2404,,active
CG12071,DRSC14471,Wg reporter activity raised,6821,,864,,active
CG17734,DRSC15256,,21658,,5795,,inactive
Pi4KIIalpha,DRSC12322,,7460,,2027,,inactive
Pi4KIIalpha,DRSC12323,,12467,,2045,,inactive
edin,DRSC09488,,4183,,1786,,inactive
Arp10,DRSC19448,,1408,6243,656,1746,inactive
CG18609,DRSC06775,,6733,,2860,,inactive
CG34057,DRSC08375,,4386,,2496,,inactive
Gdi,DRSC03330,,10470,,4610,,inactive
SNRPG,DRSC20207,,21141,,7344,,inactive
Fer2,DRSC15925,,16096,,2528,,inactive
Cox10,DRSC02804,,6752,,2285,,inactive
CG34183,DRSC01099,,21564,,11173,,inactive
CG34202,DRSC05907,,15504,,9616,,inactive
pen-2,DRSC05722,,20020,,12295,,inactive
Capr,DRSC10346,,6941,,2443,,inactive
CG2336,DRSC12581,,9568,,2742,,inactive
Osi24,DRSC12275,,14432,,4000,,inactive
CG30001,DRSC05191,,19545,,9529,,inactive
CG2267,DRSC15435,,5078,,2176,,inactive
CG15638,DRSC01875,,2235,8388,981,2784,inactive
se,DRSC10713,,1757,6486,1012,2697,inactive
Itpr,DRSC12354,,12957,,3040,,inactive
Eaf6,DRSC09901,,2412,11666,1268,4403,inactive
Rab3GAP1,DRSC00291,,3097,5976,909,2153,inactive
Rab3GAP1,DRSC00703,,4011,10102,1411,3253,inactive
orb2 + CG43783,DRSC10540,,5434,,2097,,inactive
orb2 + CG43783,DRSC10541,,1432,6292,1072,2480,inactive
orb2 + CG43783,DRSC10542,,5352,,2339,,inactive
